In paper PMC6989803, “Synechocystis KaiC3 Displays Temperature- and KaiB-Dependent ATPase Activity and Is Important for Growth in Darkness” (Journal of Bacteriology, 2019):
No constants are given. Whether binding was seen depends on the method and setting. For part of these data: In cells and extracts the contact can be indirect. Some entries that bind do so weakly or less than the wild type. Sequences can lack the tags named with a protein.

T1: KaiC1 (Synechocystis sp. strain PCC 6803), GAL4 AD or BD fusion (Synechocystis sp. strain PCC 6803) (UniProt P74646)
T1 sequence: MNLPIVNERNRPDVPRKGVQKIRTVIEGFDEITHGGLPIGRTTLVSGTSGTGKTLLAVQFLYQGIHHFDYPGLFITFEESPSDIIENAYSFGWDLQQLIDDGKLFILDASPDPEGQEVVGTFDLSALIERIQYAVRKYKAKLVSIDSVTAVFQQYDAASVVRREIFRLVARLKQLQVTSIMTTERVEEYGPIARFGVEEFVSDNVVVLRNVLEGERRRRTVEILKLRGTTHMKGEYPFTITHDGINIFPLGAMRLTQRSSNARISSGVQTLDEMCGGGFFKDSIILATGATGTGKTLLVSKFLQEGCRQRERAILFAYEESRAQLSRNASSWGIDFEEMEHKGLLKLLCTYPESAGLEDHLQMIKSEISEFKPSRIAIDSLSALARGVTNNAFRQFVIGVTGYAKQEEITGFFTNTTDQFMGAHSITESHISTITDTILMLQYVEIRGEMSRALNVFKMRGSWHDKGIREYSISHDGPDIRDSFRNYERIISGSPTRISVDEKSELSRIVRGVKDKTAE

T2: GST-tagged KaiB3 (Synechocystis sp. strain PCC 6803) (UniProt Q55819)
T2 sequence: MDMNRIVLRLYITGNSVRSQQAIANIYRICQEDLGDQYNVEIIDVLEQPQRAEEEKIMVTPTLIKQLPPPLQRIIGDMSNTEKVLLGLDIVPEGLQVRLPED

T3: GST-tagged KaiB1 (Synechocystis sp. strain PCC 6803) (UniProt P74645)
T3 sequence: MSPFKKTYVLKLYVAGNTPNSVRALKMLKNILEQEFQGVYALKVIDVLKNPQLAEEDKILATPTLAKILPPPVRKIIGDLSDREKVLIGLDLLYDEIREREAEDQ

B1: KaiB1 (Synechocystis sp. strain PCC 6803), GAL4 AD or BD fusion (protein, UniProt P74645 1-105)
chain: MSPFKKTYVLKLYVAGNTPNSVRALKMLKNILEQEFQGVYALKVIDVLKNPQLAEEDKILATPTLAKILPPPVRKIIGDLSDREKVLIGLDLLYDEIREREAEDQ
B2: KaiC1 in Synechocystis whole-cell extracts (protein, UniProt P74646 1-519)
chain: MNLPIVNERNRPDVPRKGVQKIRTVIEGFDEITHGGLPIGRTTLVSGTSGTGKTLLAVQFLYQGIHHFDYPGLFITFEESPSDIIENAYSFGWDLQQLIDDGKLFILDASPDPEGQEVVGTFDLSALIERIQYAVRKYKAKLVSIDSVTAVFQQYDAASVVRREIFRLVARLKQLQVTSIMTTERVEEYGPIARFGVEEFVSDNVVVLRNVLEGERRRRTVEILKLRGTTHMKGEYPFTITHDGINIFPLGAMRLTQRSSNARISSGVQTLDEMCGGGFFKDSIILATGATGTGKTLLVSKFLQEGCRQRERAILFAYEESRAQLSRNASSWGIDFEEMEHKGLLKLLCTYPESAGLEDHLQMIKSEISEFKPSRIAIDSLSALARGVTNNAFRQFVIGVTGYAKQEEITGFFTNTTDQFMGAHSITESHISTITDTILMLQYVEIRGEMSRALNVFKMRGSWHDKGIREYSISHDGPDIRDSFRNYERIISGSPTRISVDEKSELSRIVRGVKDKTAE

What was measured:
[1] = target: T1, KaiC1 (Synechocystis sp. strain PCC 6803), GAL4 AD or BD fusion (Synechocystis sp. strain PCC 6803); experiment: two-hybrid; yeast Y190, GAL4 AD and BD fusions (N or C terminus), colony-lift filter assay of beta-galactosidase activity
[2] = target: T2, GST-tagged KaiB3 (Synechocystis sp. strain PCC 6803); experiment: pull-down; in vitro pull-down: GST-tagged KaiB proteins on the affinity matrix, Synechocystis whole-cell extracts; methods not shown; only the target purified
[3] = target: T3, GST-tagged KaiB1 (Synechocystis sp. strain PCC 6803); experiment: as above

Row | binding [1] | binding [2] | binding [3] | Binder
1 | binds |  |  | B1
2 |  | binds | binds | B2
